At least one structure is not confirmed: it was looked up by name or label, or the drawing left a doubt.
Tested on: 3T3 fibroblast cells
Assay: Phototoxic potential, neutral red viability
Conditions: for UV Tox50: UV light 1.6-1.8 mW/cm^2, 50 minutes; for Dark Tox50: dark control plate, 50 minutes

Structure (SMILES)	UV Tox50	Dark Tox50
CN(C)CCNC(=O)c1ccc(O)c2c1CC1CC3C(N(C)C)C(O)=C(C(N)=O)C(=O)C3(O)C(O)=C1C2=O (centres unmarked) [AH]	* (minimal or no phototoxicity (e.g., greater than about 75 μg/mL))	* (minimal or no phototoxicity (e.g., greater than about 75 μg/mL))
CN(C)CCC(=NOC(C)(C)C)c1ccc(O)c2c1CC1CC3C(N(C)C)C(O)=C(C(N)=O)C(=O)C3(O)C(O)=C1C2=O (centres unmarked) [Compound CJ]	* (minimal or no phototoxicity (e.g., greater than about 75 μg/mL))	* (minimal or no phototoxicity (e.g., greater than about 75 μg/mL))
CC(=O)NCCC(=O)c1ccc(O)c2c1CC1CC3C(N(C)C)C(O)=C(C(N)=O)C(=O)C3(O)C(O)=C1C2=O (centres unmarked) [CI]	* (minimal or no phototoxicity (e.g., greater than about 75 μg/mL))	* (minimal or no phototoxicity (e.g., greater than about 75 μg/mL))
CN(C)CCC(=O)c1ccc(O)c2c1CC1CC3C(N(C)C)C(O)=C(C(N)=O)C(=O)C3(O)C(O)=C1C2=O (centres unmarked) [AV]	* (minimal or no phototoxicity (e.g., greater than about 75 μg/mL))	* (minimal or no phototoxicity (e.g., greater than about 75 μg/mL))

— patent US7935687B2, “Methods for treating spinal muscular atrophy using tetracycline compounds” (Paratek Pharmaceuticals, Inc., priority 2007, dated 2011)
